PubChem BioAssay AID504791 | Drosophila RNAi Screening Center | 2011
The deposit covers about 23,000 reagents; shown is a random part of those that have a named target and a result. Of all reagents, 199 (0.86%) were called active. 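Plate-scaled ratios behind the calls are not deposited; printed light signals are raw; many rows marked increased or decreased are still called inactive.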 Entries without a mark were called inactive. The numbers tell different reagents against one gene apart. The record does not give: the direction of the score.

Purpose: 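Genes whose knock-down strengthens or weakens small-RNA reporter silencing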 (primary screen)
System: Drosophila S2-derived reporter cells
Knock-down reagent: long dsRNA against Drosophila genes, about 150-250 ng dsRNA per well (siRNA assay); about 80-120 ng (miRNA assay)
Time to read-out: about 5 days (siRNA assay); about 4 days (miRNA assay)
Treatment: copper sulfate induction of reporters: 25 µM (siRNA assay); 200 mM stated (miRNA assay), 1-2 days before reading
Measured: 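Per-well ratio of Renilla over firefly light, expressed relative to that plate's average ratio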
Rule for the call: 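a well was a first-pass pick when its plate-scaled ratio rose above 1.5 (siRNA assay) or 1.6 (miRNA assay), or dropped below 0.6; a gene counted only if two separate dsRNAs agreed on retest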

{"gene": "CG12948", "dsRNA no.": 1, "stable assay Renilla, run 1 (luminescence)": 7207, "stable assay firefly, run 1 (luminescence)": 3.43e5}
{"gene": "Tssk", "dsRNA no.": 1, "stable assay Renilla, run 1 (luminescence)": 7566, "stable assay firefly, run 1 (luminescence)": 4.06e5}
{"gene": "CG31988", "dsRNA no.": 1, "stable assay Renilla, run 1 (luminescence)": 3075, "stable assay firefly, run 1 (luminescence)": 3.02e5}
{"gene": "CG42613", "dsRNA no.": 1, "stable assay Renilla, run 1 (luminescence)": 3499, "stable assay firefly, run 1 (luminescence)": 3.52e5}
{"gene": "CG42613", "dsRNA no.": 2, "stable assay Renilla, run 1 (luminescence)": 8745, "stable assay firefly, run 1 (luminescence)": 5.59e5}
{"gene": "CG42613", "dsRNA no.": 3, "stable assay Renilla, run 1 (luminescence)": 10853, "stable assay firefly, run 1 (luminescence)": 5.29e5}
{"gene": "glec", "dsRNA no.": 1, "stable assay Renilla, run 1 (luminescence)": 8432, "stable assay firefly, run 1 (luminescence)": 3.79e5}
{"gene": "path", "dsRNA no.": 1, "stable assay Renilla, run 1 (luminescence)": 5155, "stable assay firefly, run 1 (luminescence)": 2.73e5}
{"gene": "bou", "dsRNA no.": 1, "stable assay Renilla, run 1 (luminescence)": 5188, "stable assay firefly, run 1 (luminescence)": 2.72e5}
{"gene": "CG14811", "dsRNA no.": 1, "stable assay Renilla, run 1 (luminescence)": 5738, "stable assay firefly, run 1 (luminescence)": 4.27e5}
{"gene": "Cndp2", "dsRNA no.": 1, "stable assay Renilla, run 1 (luminescence)": 6910, "stable assay firefly, run 1 (luminescence)": 3.60e5}
{"gene": "BomS5", "dsRNA no.": 1, "stable assay Renilla, run 1 (luminescence)": 9552, "stable assay firefly, run 1 (luminescence)": 4.74e5}

2 consecutive entries already listed:
{"gene": "Cndp2", "dsRNA no.": 1, "stable assay Renilla, run 1 (luminescence)": 6910, "stable assay firefly, run 1 (luminescence)": 3.60e5}
{"gene": "BomS5", "dsRNA no.": 1, "stable assay Renilla, run 1 (luminescence)": 9552, "stable assay firefly, run 1 (luminescence)": 4.74e5}
